Assay results published in publication PMC4872777.

By UniProt entry, the sequences of proteins in these tests, tags left out. Where a name states a change or a piece, a line headed by the entry shows the natural chain unless it says otherwise.
UniProt P35613: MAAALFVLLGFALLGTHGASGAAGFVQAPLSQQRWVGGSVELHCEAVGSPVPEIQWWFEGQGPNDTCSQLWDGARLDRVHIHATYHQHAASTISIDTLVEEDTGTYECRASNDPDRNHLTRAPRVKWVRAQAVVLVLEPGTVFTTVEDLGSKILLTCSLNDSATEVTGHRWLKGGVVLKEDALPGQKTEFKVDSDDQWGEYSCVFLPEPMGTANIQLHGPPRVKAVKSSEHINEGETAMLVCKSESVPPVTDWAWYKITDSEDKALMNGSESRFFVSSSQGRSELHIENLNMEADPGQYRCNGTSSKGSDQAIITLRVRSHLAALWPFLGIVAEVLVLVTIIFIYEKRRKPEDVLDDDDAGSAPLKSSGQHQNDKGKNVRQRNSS
UniProt Q9Y4K3: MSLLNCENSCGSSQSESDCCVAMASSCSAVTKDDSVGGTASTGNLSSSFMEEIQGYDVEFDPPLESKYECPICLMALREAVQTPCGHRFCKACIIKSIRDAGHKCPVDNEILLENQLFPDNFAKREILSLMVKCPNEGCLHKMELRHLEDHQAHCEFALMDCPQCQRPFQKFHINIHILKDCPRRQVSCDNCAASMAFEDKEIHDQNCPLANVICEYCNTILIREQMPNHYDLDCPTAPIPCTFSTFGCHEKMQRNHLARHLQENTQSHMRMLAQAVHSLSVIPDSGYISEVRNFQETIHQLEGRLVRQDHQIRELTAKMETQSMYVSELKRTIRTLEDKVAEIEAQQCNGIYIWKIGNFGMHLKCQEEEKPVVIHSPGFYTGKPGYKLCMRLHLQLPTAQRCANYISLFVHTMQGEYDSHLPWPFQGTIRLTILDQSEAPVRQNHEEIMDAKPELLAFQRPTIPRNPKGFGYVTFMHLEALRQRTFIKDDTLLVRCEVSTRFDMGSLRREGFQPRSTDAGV

Biological target: endogenous BSG (human (endogenous in SK-MEL-5 and SK-MEL-28)) (UniProt P35613)
Assay: co-IP; endogenous proteins; SK-MEL-5 and SK-MEL-28 lysates immunoprecipitated with control IgG or anti-BSG antibody, immunoblot with anti-TRAF6

“endogenous TRAF6 (from UniProt Q9Y4K3 1-522)” was tested, and the binding was “binds”.

No constants are given. Whether binding was seen depends on the method and setting. In cells and extracts the contact can be indirect. A result given as binding can be weak or reduced; the word gives no strength.
